Measurements reported in the supplement of paper PMC3334620.
In all, about 33,000 sequences were measured (“E-score (-0.5 to 0.5)”: median about -0.0034, highest 2% from about 0.25 on). This is one part of the list.

biological target: T1, Yap3 (UniProt P38749); assay: PBM E-score (8-mer binding enrichment) (E-score (-0.5 to 0.5)); higher = stronger / more preferred TF binding; conditions: protein concentration: 100 nM; construct: GST-full length
T1 sequence: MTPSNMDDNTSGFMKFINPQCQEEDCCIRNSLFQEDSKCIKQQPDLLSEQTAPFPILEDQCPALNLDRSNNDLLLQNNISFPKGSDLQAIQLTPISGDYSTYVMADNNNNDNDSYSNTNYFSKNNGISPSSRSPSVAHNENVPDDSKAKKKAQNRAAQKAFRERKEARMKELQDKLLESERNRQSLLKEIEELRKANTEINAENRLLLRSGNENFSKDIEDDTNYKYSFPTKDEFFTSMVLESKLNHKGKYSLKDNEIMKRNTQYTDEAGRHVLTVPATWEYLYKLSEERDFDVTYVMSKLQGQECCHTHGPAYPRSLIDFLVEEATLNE
Description: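 Universal 'all 10-mer' protein binding microarrays (Agilent AMADID 015681) probed with GST-tagged S. cerevisiae TFs (full-length or DBD) made by in vitro transcription/translation (PURExpress), about 100-200 nM. Bound TF was detected with fluorescent anti-GST. Each ungapped 8-mer (which stands for itself and its reverse complement) is scored by the PBM enrichment score (E-score), a modified Wilcoxon-Mann-Whitney statistic from -0.5 to +0.5, computed with the Universal PBM Analysis Suite. Scale: above 0.35 generally sequence-specific binding.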

Row | Sequence | PBM E-score
1 | ATCCACAT | 0.103
2 | CGCGGTGC | -0.183
3 | CTTCCTGA | 0.0452
4 | AGCGTCCA | -0.147
5 | AATATTTG | 0.242
6 | CAACTTCG | 0.0376
7 | CCCGGCCG | -0.278
8 | GCGTCCTA | -0.0921
9 | CCCAGCAC | -0.123
10 | AATACTGG | 0.104
11 | CATACATC | 0.102
12 | CAAAGCCA | -0.011
13 | GGGTACCC | -0.452
14 | AGATTCTG | -0.219
15 | CGGTTGAC | -0.0195
16 | GATTGCGA | 0.108
17 | CATATCAG | 0.064
18 | CAGACCCA | -0.187
19 | CTGCTAGA | -0.0935
20 | CGTAAAGA | 0.0398
21 | CCACTCCA | -0.0642
22 | CATTGCCA | 0.103
23 | CGAGATCA | 0.101
24 | AGCCGACG | -0.00612
25 | TCAAGCAA | -0.15

Row | Sequence | PBM E-score
26 | CCGCGTGA | 0.142
27 | CTTCGGGA | -0.0628
28 | CCATTCTA | -0.0038
29 | AGTACCTG | 0.0401
30 | TATCGTCA | 0.101
31 | CGAAAATC | 0.102
32 | AGCTACAT | 0.00557
33 | ACGCGGCT | 0.0253
34 | ACTTCGTG | -0.0284
35 | CCCGCATC | -0.183
36 | GATCCGCA | -0.0844
37 | TACGGCAA | 0.231
38 | AGGCTGTC | -0.211
39 | CCAGGGTC | -0.224
40 | CGAACGAC | 0.135
41 | CCTGACAA | 0.129
42 | GAATGGTC | -0.127
43 | ACAATGGT | -0.0183
44 | CCATAGTC | -0.143
45 | AAGCGATT | 0.0197
46 | AGACCTCG | -0.0204
47 | CCCGTCCA | -0.136
48 | GATAAGTA | 0.165
49 | AACCCCAA | 0.0873
50 | ATTCCAGG | -0.0192

Row | Sequence | PBM E-score
51 | ACCTGTAC | -0.0609
52 | CTATAAGC | 0.0338
53 | CGCAATCA | 0.0506
54 | CAGGTACG | -0.191
55 | AAGAAAAT | 0.273
56 | CAAGCGTC | -0.0794
57 | AGGCGGGA | 0.0533
58 | ATGGCTAC | 0.0819
59 | CATGCGGG | -0.149
60 | GACTACTA | 0.146
61 | GAGACATC | -0.0399
62 | GATAAGAC | 0.0444
63 | ACTTTCAA | 0.198
64 | GTAACCAA | 0.153
65 | ACACCGGA | -0.112
66 | GCCTGCGC | -0.204
67 | GACGTAAA | 0.0343
68 | GAGACGCA | 0.149
69 | GTCCAATA | 0.101
70 | GAAGGGCC | -0.187
71 | GCGCGGAA | 0.107
72 | CAGGTGTA | 0.0429
73 | GCTGCGTA | 0.0618
74 | CAGTGAAC | 0.161
75 | CAGTCGCG | -0.0232

Excerpt, nos. 70 to 72
Row | Sequence | PBM E-score
70 | GAAGGGCC | -0.187
71 | GCGCGGAA | 0.107
72 | CAGGTGTA | 0.0429

(next part)

Row | Sequence | PBM E-score
76 | GGACACAA | 0.175
77 | CATCATAG | 0.0614
78 | ATAGCGGG | -0.136
79 | CCTACCAC | -0.251
80 | CTCTGCTA | -0.184
81 | CCGTGAGA | -0.162
82 | GGATGTCA | 0.113
83 | ACGCAGTA | -0.058
84 | ATCTTGCG | 0.0731
85 | ATCACTGG | 0.017
86 | CACGTTTC | -0.0641
87 | ATGCTCAA | -0.00847
88 | TATAGTGA | 0.088
89 | CGCCCACC | -0.00175
90 | TCGTAGCA | 0.0759
91 | GTGTTAAC | -0.015
92 | ACTGTAAG | 0.131
93 | ACTTAAAT | 0.0397
94 | AGCTTGTA | 0.111
95 | GCCCTACA | 0.0829
96 | ACTTAGAC | 0.117
97 | ATAAAGAT | 0.198
98 | GGAGAGAC | -0.0142
99 | ATTCCGAA | 0.195
100 | CCCTATCG | -0.164

Row | Sequence | PBM E-score
101 | ATGGGAAC | 0.12
102 | GCATCTAA | 0.186
103 | TCTAGCAA | 0.0794
104 | CGTCCTTC | 0.0406
105 | CGTATAGA | -0.00979
106 | AGAAAGGC | -0.0495
107 | CACGGAAC | 0.061
108 | ACTTAGTC | 0.0573
109 | AAAGTACA | 0.27
110 | GAGTGTTA | 0.0924
111 | ACTTTGAT | 0.0469
112 | AATGGTAC | 0.13
113 | AAAAATAG | 0.225
114 | GGTGCTGA | -0.314
115 | AGCCGTCC | -0.0121
116 | ACATCCAC | -0.00353
117 | AGCTCCTA | -0.26
118 | CTATGCGC | 0.0709
119 | GCTTTTCC | -0.0257
120 | CAACCTTC | -0.049
121 | AGTAAGCA | 0.00993
122 | GAGCATCA | -0.0444
123 | TCTGATCA | 0.0734
124 | GAGGGCTA | -0.0978
125 | TCTCGCAA | 0.0895

Row | Sequence | PBM E-score
126 | CGGCGCGA | 0.127
127 | ACCCGATA | 0.0312
128 | AGCCCACT | -0.136
129 | CATCCAGA | -0.101
130 | ACTAGCAA | 0.0373
131 | CCACACAA | 0.0602
132 | CGTGGTGA | -0.221
133 | AGCCCCCT | -0.312
134 | GTCGTAGA | -0.00497
135 | CTTGTAGC | -0.0131
136 | ACGCGGAC | -0.0572
137 | GCTGGTAC | -0.184
138 | CCACGCCA | -0.043
139 | GGCACTAA | 0.107
140 | CCGGGTCG | -0.157
141 | CGGCAAGA | 0.0482
142 | ACGGTGCT | -0.039
143 | GGCATCCC | -0.214
144 | GGCTCAGA | -0.112
145 | CGACGCGA | -0.0795
146 | AGGATGAT | 0.151
147 | ACCGGATG | -0.0805
148 | CTCAACTC | 0.099
149 | CCGGTCAC | -0.153
150 | AGAAACTC | 0.0111

4 entries from above, set out differently.

| Row | Sequence | PBM E-score |
| --- | --- | --- |
| 127 | ACCCGATA | 0.0312 |
| 131 | CCACACAA | 0.0602 |
| 135 | CTTGTAGC | -0.0131 |
| 143 | GGCATCCC | -0.214 |

The listing continues:

Row | Sequence | PBM E-score
151 | CCAACGGA | -0.191
152 | ACCGCGTA | 0.128
153 | AGCGCACT | -0.0349
154 | ACCATCGG | -0.221
155 | AACGATCT | 0.0807
156 | ATACAGGA | 0.166
157 | GCTACTCA | -0.0832
158 | ACAAGTGA | 0.0221
159 | CGAAGTGA | 0.0166
160 | GACACCCC | -0.274
161 | AGGACAGC | 0.00569
162 | CACTAACC | -0.0243
163 | AGCGCGCC | 0.00552
164 | GCGTACTA | -0.00541
165 | AAGACGAT | 0.115
166 | ATGAGCAA | 0.113
167 | GCTCCGCC | -0.13
168 | AGTCTACC | -0.238
169 | ACTGTTAG | -0.0667
170 | AGGGACCA | -0.125
171 | AGAAACAT | 0.209
172 | GCATAGAC | -0.112
